Patent US12570655B2, “Cysteine covalent modifiers of AKT1 and uses thereof” (Terremoto Biosciences, Inc., priority 2023, dated 2026)
At least one compound was matched to its structure with a doubt left.

Protein sequences, listed by entry. Tags and fused reporters are not part of them. Lines headed by an entry give the natural chain unless they say otherwise; changes in a name come on top.
UniProt P31749: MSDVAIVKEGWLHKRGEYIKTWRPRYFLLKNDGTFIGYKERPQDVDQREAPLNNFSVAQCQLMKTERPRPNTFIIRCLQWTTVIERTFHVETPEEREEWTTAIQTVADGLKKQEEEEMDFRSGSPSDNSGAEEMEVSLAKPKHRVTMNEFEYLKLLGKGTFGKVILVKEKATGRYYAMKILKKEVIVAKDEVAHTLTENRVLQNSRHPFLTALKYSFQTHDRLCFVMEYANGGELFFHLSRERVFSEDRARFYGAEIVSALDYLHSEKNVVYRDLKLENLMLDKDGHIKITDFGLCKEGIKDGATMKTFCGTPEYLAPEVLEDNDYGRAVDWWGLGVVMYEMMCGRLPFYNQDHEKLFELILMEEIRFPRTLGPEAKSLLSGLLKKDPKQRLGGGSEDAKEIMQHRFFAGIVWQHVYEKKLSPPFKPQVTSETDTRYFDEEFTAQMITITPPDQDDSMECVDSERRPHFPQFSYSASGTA

Target: T1, AKT1 WT (Homo sapiens, UniProt P31749)
T1 construct: expressed in transfected cells; host or cells: HEK293
Experiment: Live cell AKT1 WT target engagement by NanoBRET competitive probe displacement
Format: cell-based
Settings: HEK293 cells transfected with kinase-NanoLuciferase fusion, 2 h at 37° C.
Experimental: Determining Live Cell AKT1 E17K, AKT1 WT, and AKT2 Target Engagement by NanoBRET Competitive Probe Displacement.
Live cell target engagement assays were performed as described (Vasta, J. D. et al. Cell Chem Biol 2018, 25(11), 206-214). Briefly, HEK293 cells were transfected with plasmids encoding kinase-NanoLuciferase fusion proteins overnight. Cells were then treated with serial dilutions of compound and an ˜EC50 concentration of fluorescently-tagged ATP-competitive tracer (Promega). After incubation for 2 h at 37° C., luciferase substrate and extracellular luciferase inhibitor were added to all wells, and luminescent intensity at 460 nm and 600 nm were measured on a multimode plate-reader. The ratio of E600/E460 was calculated to give the tracer engagement signal (BRET). IC50 values were calculated by fitting BRET values to a log(inhibitor) vs. response Hill equation.

Molecule C=CC(=O)N1CCC(N[C@@H]2c3ccc(-n4c(-c5ccccc5)nc5ccc(-n6ccc(F)n6)nc54)cc3CC2F)CC1 (stereo partly drawn) [Example 332, 1-(4-(((1R,2*)-2-fluoro-5-(5-(3-fluoro-1H-pyrazol-1-yl)-2-phenyl-3H-imidazo[4,5-b]pyridin-3-yl)-2,3-dihydro-1H-inden-1-yl)amino)piperidin-1-yl)prop-2-en-1-one] has an IC50 of 8.08 µM.
